Data from PMC12259256.
Results are given in words; binding and its absence hold for the method and conditions named. Binding seen in cells or lysates may run through a third protein. These calls come from enrichment with a bait or labelling near it, and not all partners need be listed.

Amino acid sequences for entries named in this document (tags omitted). Residues count along the entry.
UniProt P22607, residues 23-806: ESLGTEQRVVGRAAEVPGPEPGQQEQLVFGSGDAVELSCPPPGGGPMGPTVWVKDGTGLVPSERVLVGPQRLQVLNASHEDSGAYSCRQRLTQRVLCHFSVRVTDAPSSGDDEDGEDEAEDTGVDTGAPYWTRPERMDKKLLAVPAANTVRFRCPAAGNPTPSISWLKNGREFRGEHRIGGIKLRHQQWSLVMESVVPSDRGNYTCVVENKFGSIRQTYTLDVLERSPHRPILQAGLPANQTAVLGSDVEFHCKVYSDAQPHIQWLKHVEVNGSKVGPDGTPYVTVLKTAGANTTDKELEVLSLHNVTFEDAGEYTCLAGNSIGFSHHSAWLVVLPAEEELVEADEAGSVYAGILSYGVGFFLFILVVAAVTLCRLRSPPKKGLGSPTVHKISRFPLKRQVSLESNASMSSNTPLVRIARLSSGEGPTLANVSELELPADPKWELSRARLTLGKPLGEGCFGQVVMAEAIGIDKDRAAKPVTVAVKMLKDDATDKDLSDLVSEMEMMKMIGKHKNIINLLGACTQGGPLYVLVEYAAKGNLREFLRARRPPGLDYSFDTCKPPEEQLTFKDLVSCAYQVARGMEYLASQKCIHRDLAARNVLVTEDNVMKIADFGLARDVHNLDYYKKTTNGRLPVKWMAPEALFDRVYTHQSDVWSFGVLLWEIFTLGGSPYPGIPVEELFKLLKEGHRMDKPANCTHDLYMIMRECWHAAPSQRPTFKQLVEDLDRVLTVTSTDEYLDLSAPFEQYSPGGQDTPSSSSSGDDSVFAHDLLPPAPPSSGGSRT
UniProt P51532: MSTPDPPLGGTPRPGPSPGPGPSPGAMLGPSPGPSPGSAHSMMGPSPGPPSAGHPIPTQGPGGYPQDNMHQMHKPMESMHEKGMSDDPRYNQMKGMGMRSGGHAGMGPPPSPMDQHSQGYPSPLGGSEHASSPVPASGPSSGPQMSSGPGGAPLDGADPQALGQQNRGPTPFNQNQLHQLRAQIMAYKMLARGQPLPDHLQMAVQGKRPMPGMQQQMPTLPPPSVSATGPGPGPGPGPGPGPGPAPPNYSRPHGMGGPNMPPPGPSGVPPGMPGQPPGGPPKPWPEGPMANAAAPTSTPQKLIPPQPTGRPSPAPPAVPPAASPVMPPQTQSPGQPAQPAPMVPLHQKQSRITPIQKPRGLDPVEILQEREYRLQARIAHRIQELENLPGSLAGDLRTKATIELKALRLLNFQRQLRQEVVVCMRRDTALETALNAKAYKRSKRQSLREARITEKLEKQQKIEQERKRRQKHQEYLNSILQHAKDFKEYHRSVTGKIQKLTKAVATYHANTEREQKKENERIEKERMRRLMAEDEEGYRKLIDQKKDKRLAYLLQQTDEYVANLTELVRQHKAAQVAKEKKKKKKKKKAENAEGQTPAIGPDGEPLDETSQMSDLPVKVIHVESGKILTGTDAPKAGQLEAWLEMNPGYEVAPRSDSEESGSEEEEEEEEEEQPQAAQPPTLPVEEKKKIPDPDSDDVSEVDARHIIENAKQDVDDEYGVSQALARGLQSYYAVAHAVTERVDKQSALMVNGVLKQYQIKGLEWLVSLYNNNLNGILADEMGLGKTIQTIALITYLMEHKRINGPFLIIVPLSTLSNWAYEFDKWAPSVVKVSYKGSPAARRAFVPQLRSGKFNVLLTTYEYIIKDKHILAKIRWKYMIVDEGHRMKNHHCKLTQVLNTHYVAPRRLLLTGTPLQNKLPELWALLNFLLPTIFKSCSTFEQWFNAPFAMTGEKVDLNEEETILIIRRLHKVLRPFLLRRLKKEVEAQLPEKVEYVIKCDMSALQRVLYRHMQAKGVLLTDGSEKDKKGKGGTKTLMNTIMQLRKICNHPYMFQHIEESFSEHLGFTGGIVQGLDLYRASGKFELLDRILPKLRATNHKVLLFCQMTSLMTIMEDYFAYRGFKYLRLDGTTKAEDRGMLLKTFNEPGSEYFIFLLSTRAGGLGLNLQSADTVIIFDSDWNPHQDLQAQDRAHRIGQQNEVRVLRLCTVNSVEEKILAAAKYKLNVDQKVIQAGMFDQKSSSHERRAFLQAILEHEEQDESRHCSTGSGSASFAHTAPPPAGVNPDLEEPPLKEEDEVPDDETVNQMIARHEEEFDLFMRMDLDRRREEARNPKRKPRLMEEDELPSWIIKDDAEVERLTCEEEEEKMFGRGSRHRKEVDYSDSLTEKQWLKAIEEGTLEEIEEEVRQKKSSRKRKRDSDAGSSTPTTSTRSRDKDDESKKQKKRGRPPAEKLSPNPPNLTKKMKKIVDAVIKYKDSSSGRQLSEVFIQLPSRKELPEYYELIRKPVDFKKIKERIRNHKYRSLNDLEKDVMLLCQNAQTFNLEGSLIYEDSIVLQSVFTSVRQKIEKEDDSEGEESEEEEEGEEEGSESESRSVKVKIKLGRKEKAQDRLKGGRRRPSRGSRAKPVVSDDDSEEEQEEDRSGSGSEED

Target: FGF receptor 3 (human (endogenous in SUM149 and SUM149-BR cells)) (UniProt P22607)
Test: affinity purification with mass spectrometry; mass spectrometry of FGFR3-interacting proteins in response to talazoparib treatment in SUM149 parental and BR#09 cells

Substance: Brahma-related gene 1 (from UniProt P51532 1-1647)
- binding: binds
